Source: patent US20200369772A1 (ABBA THERAPEUTICS, published 2020)
Substitutions are numbered along the chain they refer to. Names and notes keep the numbering of the source. These are yes or no findings as the source states them, for the method shown. Some binding calls cover weakened binding; strength is not graded here.

B1: 10D1-G1 N31Q.N92Q.LC (antibody, V domains shown)
VH: QVQLQESGPGLVKPSGTLSLTCAVSGGSISSSYWWSWVRQPPGKGLEWIGEIFHIGSTNYNPSLRSRVTISVVKSKNQFSLNLNSVTAADTAVYFCARVSGGYGYFSGMDVWGQGTTVTVSS
VL: DIQMTQSPSSLSASVGDRVTITCRASQGIRQDLGWYQQKPGKAPKRLIYGASSLQSGVPSRFSGSGSGTEFTLTISSLQPEDFATYYCLQHQSYPRTFGQGTKVEIK
notes: Optimized variant of 10D1-G1; also called 10D1-G1 N31Q.N920.LC
B2: 10A9-D2 N31Q.LC (antibody, V domains shown)
VH: QVQLQESGPGLVKPSETLSLTCAVSGGSISSSYWWSWVRQPPGKGLEWVGEVFHVGVTNYNPSLKSRVTISVDKSKNQFSLKLTSVTAADTAVYYCARVTGTTGYYHGLDVWGQGTTVTVFS
VL: B1 VL with A43V, G50A, V58I, Q92N, S93N
notes: Optimized variant of 10A9-D2
B3: 19B3-B3 M23K.M63L.HC (antibody, V domains shown)
VH: QVQLVQSGAEVKKPGASVKVSCKASGYTFTNYAIHWVRQAPGQRLEWMGWINTGLGKPKYSQLFQDRVTITRDTSASTASMELSGLRSDDTAVYYCARVGWELYFDYWGQGTLVTVSS
VL: DIQMTQSPSTLSASVGDRVTITCRASQSISSLLAWYQQKPGKAPKLLIYKASSLESGVPSRFSGSGSGTEFTLTISSLQPDDFATYFCQQYNSYWTFGQGTKVEIK
notes: Optimized variant of 19B3-B3
B4: 19B3-B3 N92Q.LC.M23K.M63L.HC (antibody, V domains shown)
VH: B3 VH
VL: B3 VL with N92Q
notes: Optimized variant of 19B3-B3
B5: 19B3-B3 N92Y.LC.M23K.M63L.HC (antibody, V domains shown)
VH: B3 VH
VL: B3 VL with N92Y
notes: Optimized variant of 19B3-B3
B6: 1A1-C2 (antibody, V domains shown)
VH: QVQLQESGPGLVKPSGTLSLTCAVSGGSIGSSYWWTWIRQSPGKGLEWIGEIFHSGPTNYTPSLKSRVTISVDKSKNQFSLQLRSVTAADTAVYYCARTTGTTGFYYGMDVWGQGTTVTVSS
VL: EVVLTQSPATLYVTPGERVTLSCRASQSVSSNLAWYQQKPGQAPRLLIYGASTRATGIPARFSGSGSGTEFTLTISSLQSEDFAVYYCQQFNNWPRTFGLGTKVEIT
B7: 2C4-E4 (antibody, V domains shown)
VH: QVQLVQSGAEVKKPGASVKVSCKASGYTFTGYVMHWVRQAPGQRLEWMGWINADNGITKYSQKFQGRVTITRDTSASTAYMELTNLRSEDTAVYYCARATRGFGEFYFDYWGQGNLVTVSS
VL: B3 VL with S28T, L32W, K45N, F87Y, N92Y
notes: Both formats under this entry
B8: 8B5-B1 (antibody, V domains shown)
VH: EVQLLESGGGLVQPGGSLKLSCAASGFTFSSYAMFWVRQAPGEGLAWVSAITGSGDHTYYADSVKDHFTISRDNSKNTLYLQMNSLKAEDTAVYYCAKDASGNSYGFPYWYFDLWGRGTLVTVSS
VL: QSALTQPASVSGSPGQSITISCTGTSSDVAGYNFVSWYQHHPGKTPKLMIYDVTNRPSGVSTRFSGSKSGNTASLTISGLQAEDEADYYCSSFTSATTLVFGGGTKLTVLG
notes: Both formats under this entry
B9: 11C11-H5 (antibody, V domains shown)
VH: QVQLVESGGGVVQPGRSLRLSCAASGFAFSAYGMHWVRQAPGKGLEWVAISWYDGSNNYHADSVKGRFTISRDSSKNTLYLQMNSLRAEDTAVYYCAKSIGVARHYYYGMDVWGQGTTVTVSS
VL: SYELTQPPSVSVSPGQTASITCSGEELGDKYACWYQQKPGQSPVLVIYQDSKRPSGIPERFSGSNSGNAATLTISGTQAMDEADYYCQAWDSITVVFGGGTKLTVLG
notes: Both formats under this entry
B10: 19C3-B3 (antibody, V domains shown)
VH: B9 VH
VL: B9 VL with V44L, V96I
notes: Both formats under this entry; also called 19C3-C3
B11: 10D1-G1 (antibody, V domains shown)
VH: B1 VH
VL: B1 VL with Q31N, Q92N
notes: Both formats under this entry
B12: 7H5-C5 (antibody, V domains shown)
VH: QVQLVESGGGLVKPGGSLRLSCAASGFSLSDYYMSWTRQAPGRGLEWVSFISSSGSTIYYVDSVKGRFTISRDHAKNSLYLQINSLRAEDTAVYYCARAQWLPDFDYWGQGTLVTVSS
VL: QSALTQPPSASGSPGQSVTISCTGTSSDVSGYNYVSWYQHHPDKAPKLLIYEVNKRPSGVPARFSGSKSGNTASLTVSGLQAEDEADYYCTSFADNNNVVFGGGTKLTVLG
notes: Both formats under this entry
B13: 9A3-C7 (antibody, V domains shown)
VH: B12 VH with T37I, F50Y, H74N, Y95H
VL: B12 VL with S30G, D43G, A45V, L49M, N54S, A62D, V100G
notes: Both formats under this entry
B14: 10A9-D2 (antibody, V domains shown)
VH: B2 VH
VL: B1 VL with Q31N, A43V, G50A, V58I, Q92N, S93N
notes: Both formats under this entry
B15: 19B3-B3 (antibody, V domains shown)
VH: B3 VH with K23M, L63M
VL: B3 VL
notes: Both formats under this entry
B16: 12A1-D4 (antibody, V domains shown)
VH: QVQLQESGPGLVKPSGTLSLTCAVSGGSISSNNWWSWVRQPPGKGLEWIGEIFHVGSTNYNPSLKSRVTISVDKSKNQFSLKLSSLTAADTAVYYCARMVGATGHYYGMDVWGQGTTVTVSS
VL: DIQLTQSPSFLSASVGDRVTITCRASQGISSSLAWYQQKPGKAPKFLIYAASTLQSGVPSRFSGSGSGTEFTLTISSLQPEDFATYYCQQLNSYPKSWTFGQGTKVEIK
notes: Both formats under this entry

Molecular target: cynomolgus monkey PD-L2 (full-length, on cells) (cynomolgus monkey)
Assay: FACS on HEK293T cells expressing cynomolgus PD-L2

binding, binds:
B1
B2
B3
B4
B5

Molecular target: cynomolgus monkey PD-L2 (full-length, on cells) (cynomolgus monkey)
Assay: FACS on HEK293 cells stably expressing full-length monkey PD-L2, 0.5 µg/ml antibody

binding, binds:
B6
B7
B8
B9
B10
B11
B12
B13
B14
B15
B16
